Test system: HeLa
Assay: Antiproliferative activity against human HeLa cells after 48 hrs by MTT assay
Assay type: functional, cell-based

## COc1cc2c(c(OC)c1OC)-c1ccc(OC)c(=O)cc1[C@@H](NC(C)=O)CC2 [COLCHICINE]
  IC50: 138 nM
